From patent US20170226207A1 (Astellas, published 2017)
Substitutions are numbered along the chain they refer to. Results are given in words; binding and its absence hold for the method and conditions named. A result given as binding can be weak or reduced; the word gives no strength. One block for each binder: values may come before it.

Biological target: monkey Igβ-Flag protein (monkey)
Experiment: antigen ELISA, Igβ-Flag coated on plate

binding: binds
B1: humanized antibody CL6_40m12_DDW (antibody, human IgG1, kappa, V domains shown)
VH: EVQMVESGGGLVQPGGSLRLSCAVSGFSLSSYSVHWVRQAPGKGLEWVAGIWSGGSIHYTPALSSRFTVSRDDSKNTVYLQMNSLRAEDTAVYYCARYDRYETYAMDYWGQGTLVTVSS
VL: DIQLTQSPSSLSASVGDRVTITCKASQSVDYDGDSYMNWYQQKPGKAPKLLIYAASNLESGVPSRFSGSGSGTDFTLTISSLQPEDFATYYCQQSNEDPLTFGQGTKVEIKR
notes: Humanized anti-human Igβ antibody

binding: binds
B2: humanized antibody CL6_40m16_DDW (antibody, human IgG1, kappa, V domains shown)
VH: B1 VH with M4L, V37F, Q39K, V48L, A49G, F67L, D73I
VL: B1 VL with Q3V
notes: as for B1
